Drawing on PMC7042713, this text covers binding for three molecules.

No constants are given. Whether binding was seen depends on the method and setting. In cells and extracts the contact can be indirect. A yes stands for co-enrichment or nearness to the bait. Other partners may have been found. Tags and fused reporters may be left off the sequences shown.

Common to all, as to assay: affinity purification with mass spectrometry; SOK-YFP captured with anti-GFP MicroBeads from extracts of transgenic Arabidopsis seedling roots (0.05 M Tris-HCl pH 7.5, 0.15 M NaCl, NP40); non-transgenic Col-0 as control; 3 replicates; nanoLC-MS/MS
Assay [1] addresses T1, SOK2-YFP (AtSOK2 fused to YFP, expressed from the RPS5A promoter) (Arabidopsis thaliana) (UniProt Q9LX14).
T1 sequence: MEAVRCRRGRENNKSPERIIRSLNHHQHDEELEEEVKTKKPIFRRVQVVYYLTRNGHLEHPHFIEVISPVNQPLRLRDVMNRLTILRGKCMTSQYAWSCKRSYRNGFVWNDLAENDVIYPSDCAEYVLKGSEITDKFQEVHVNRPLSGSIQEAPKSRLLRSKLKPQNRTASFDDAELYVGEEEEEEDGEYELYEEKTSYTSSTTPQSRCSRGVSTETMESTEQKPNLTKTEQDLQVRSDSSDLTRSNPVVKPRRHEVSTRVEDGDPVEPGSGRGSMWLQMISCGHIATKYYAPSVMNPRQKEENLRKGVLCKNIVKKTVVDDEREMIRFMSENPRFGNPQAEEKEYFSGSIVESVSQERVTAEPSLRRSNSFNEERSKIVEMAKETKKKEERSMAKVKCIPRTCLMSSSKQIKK

Assay [2] addresses T2, SOK1-YFP (AtSOK1 fused to YFP, expressed from the RPS5A promoter) (Arabidopsis thaliana) (UniProt Q9SYJ8).
T2 sequence: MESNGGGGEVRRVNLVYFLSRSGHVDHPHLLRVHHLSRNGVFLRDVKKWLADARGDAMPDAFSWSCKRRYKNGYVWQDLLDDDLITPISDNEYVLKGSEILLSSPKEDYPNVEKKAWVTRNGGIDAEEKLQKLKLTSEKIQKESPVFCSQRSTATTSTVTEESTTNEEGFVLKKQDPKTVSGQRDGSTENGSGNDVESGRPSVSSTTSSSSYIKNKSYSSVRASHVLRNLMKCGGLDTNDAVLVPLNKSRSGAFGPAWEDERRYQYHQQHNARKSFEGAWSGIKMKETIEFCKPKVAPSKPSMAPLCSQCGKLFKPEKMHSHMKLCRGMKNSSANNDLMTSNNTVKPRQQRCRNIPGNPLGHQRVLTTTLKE

The target in assay [3] is T3, SOK3-YFP (AtSOK3 fused to YFP, expressed from the RPS5A promoter) (Arabidopsis thaliana) (UniProt Q8GYT8).
T3 sequence: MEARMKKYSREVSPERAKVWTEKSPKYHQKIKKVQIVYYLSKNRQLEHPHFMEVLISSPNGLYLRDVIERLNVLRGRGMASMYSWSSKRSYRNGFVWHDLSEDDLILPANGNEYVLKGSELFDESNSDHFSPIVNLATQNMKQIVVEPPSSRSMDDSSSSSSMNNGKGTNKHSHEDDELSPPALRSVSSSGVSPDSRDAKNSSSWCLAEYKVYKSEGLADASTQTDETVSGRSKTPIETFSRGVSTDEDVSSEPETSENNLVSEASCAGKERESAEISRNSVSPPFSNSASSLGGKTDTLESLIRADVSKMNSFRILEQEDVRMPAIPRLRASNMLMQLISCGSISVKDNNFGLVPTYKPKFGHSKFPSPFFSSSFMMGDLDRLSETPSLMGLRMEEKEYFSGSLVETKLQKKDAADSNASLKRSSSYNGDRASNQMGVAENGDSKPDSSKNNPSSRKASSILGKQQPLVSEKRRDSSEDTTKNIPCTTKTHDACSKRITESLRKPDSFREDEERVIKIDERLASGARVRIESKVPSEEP

B1: AtSOK3 (endogenous SOSEKI3) (protein, UniProt Q8GYT8 1-540)
chain: MEARMKKYSREVSPERAKVWTEKSPKYHQKIKKVQIVYYLSKNRQLEHPHFMEVLISSPNGLYLRDVIERLNVLRGRGMASMYSWSSKRSYRNGFVWHDLSEDDLILPANGNEYVLKGSELFDESNSDHFSPIVNLATQNMKQIVVEPPSSRSMDDSSSSSSMNNGKGTNKHSHEDDELSPPALRSVSSSGVSPDSRDAKNSSSWCLAEYKVYKSEGLADASTQTDETVSGRSKTPIETFSRGVSTDEDVSSEPETSENNLVSEASCAGKERESAEISRNSVSPPFSNSASSLGGKTDTLESLIRADVSKMNSFRILEQEDVRMPAIPRLRASNMLMQLISCGSISVKDNNFGLVPTYKPKFGHSKFPSPFFSSSFMMGDLDRLSETPSLMGLRMEEKEYFSGSLVETKLQKKDAADSNASLKRSSSYNGDRASNQMGVAENGDSKPDSSKNNPSSRKASSILGKQQPLVSEKRRDSSEDTTKNIPCTTKTHDACSKRITESLRKPDSFREDEERVIKIDERLASGARVRIESKVPSEEP
As for B1, in assay [1], the binding result was “binds”.

B2: ANGUSTIFOLIA (endogenous) (protein, UniProt O23702 1-636)
chain: MSKIRSSATMPHRDQPSPASPHVVTLNCIEDCALEQDSLAGVAGVEYVPLSRIADGKIESATAVLLHSLAYLPRAAQRRLRPHQLILCLGSADRAVDSTLAADLGLRLVHVDTSRAEEIADTVMALILGLLRRTHLLSRHALSASGWLGSLQPLCRGMRRCRGMVLGIVGRSVSARYLASRSLAFKMSVLYFDVPEGDEERIRPSRFPRAARRMDTLNDLLAASDVISLHCALTNDTVQILNAECLQHIKPGAFLVNTGSCQLLDDCAVKQLLIDGTIAGCALDGAEGPQWMEAWVKEMPNVLILPRSADYSEEVWMEIREKAISILHSFFLDGVIPSNTVSDEEVEESEASEEEEQSPSKHEKLAIVESTSRQQGESTLTSTEIVRREASELKESLSPGQQHVSQNTAVKPEGRRSRSGKKAKKRHSQQKYMQKTDGSSGLNEESTSRRDDIAMSDTEEVLSSSSRCASPEDSRSRKTPLEVMQESSPNQLVMSSKKFIGKSSELLKDGYVVALYAKDLSGLHVSRQRTKNGGWFLDTLSNVSKRDPAAQFIIAYRNKDTVGLRSFAAGGKLLQINRRMEFVFASHSFDVWESWSLEGSLDECRLVNCRNSSAVLDVRVEILAMVGDDGITRWID
B2: the binding entry in assay [2], in assay [3] and in assay [1] was “binds” each time.

B3: AtSOK4 (endogenous SOSEKI4) (protein, UniProt Q8GY65 1-343)
chain: MALVSSRATQDSKPSRERIVPVVYYLSRNGRLDHPHFIEVPLSSHNGLYLKDVINRLNDLRGNGMACLYSWSSKRTYKNGFVWYDLSDEDFIFPVHGQEYVLKGSQILDLDNNSGNFSAVTHRRNQSWSSVDHYKVYKASELNAEATRKLSMDASTQTDDRRRRKSPVDEVNEVTELSREEITSPPQSDSSPETLESLMRADGRLILLQEDQELNRTVEKMRPSAVLMQLISCGAMSFKKCGPTLMNGNTRSTAVRGTGNYRLERAEKELKSFGRVKLEEKEYFSGSLIDESSKKELVPALKRSSSYNIDRSSRMGLTKEKEGEELARANFIPRNPNSVVGQP
Take B3: in assay [2], the binding entry is recorded as “binds”.
